In PMC6073313, “Comparison of the Anion Inhibition Profiles of the α-CA Isoforms (SpiCA1, SpiCA2 and SpiCA3) from the Scleractinian Coral Stylophora pistillata” (International Journal of Molecular Sciences, 2018) one finds Ki data, which are given here for one compound.

In the assay the target is T1, SpiCA3 (Stylophora pistillata, UniProt A0A1B0Y357).
T1 construct: gene CA3
T1 sequence (A0A1B0Y357 1-258): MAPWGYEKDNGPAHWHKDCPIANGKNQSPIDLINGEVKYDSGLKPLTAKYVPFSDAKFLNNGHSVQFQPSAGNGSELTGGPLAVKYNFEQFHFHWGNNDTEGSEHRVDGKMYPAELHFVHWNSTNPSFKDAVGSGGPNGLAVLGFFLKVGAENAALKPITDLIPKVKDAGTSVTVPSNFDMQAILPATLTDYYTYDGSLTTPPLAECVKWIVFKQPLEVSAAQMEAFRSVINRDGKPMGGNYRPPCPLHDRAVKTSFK
Description: stopped-flow CO2 hydration, phenol red, Cheng-Prusoff. Format: biochemical.

`CC(=O)Nc1nnc(S(N)(=O)=O)s1` [AAZ, 5-acetamido-1,3,4-thiadiazole-2-sulfonamide] displayed a Ki of 737 nM.
